Reference: the supplement of paper PMC3334620
The full ranking holds about 33,000 sequences; the median of “E-score (-0.5 to 0.5)” is about -0.016, and the highest 2% start at about 0.3. Some of the results follow.

Biological target: T1, Yer184c (UniProt P39961)
T1 sequence: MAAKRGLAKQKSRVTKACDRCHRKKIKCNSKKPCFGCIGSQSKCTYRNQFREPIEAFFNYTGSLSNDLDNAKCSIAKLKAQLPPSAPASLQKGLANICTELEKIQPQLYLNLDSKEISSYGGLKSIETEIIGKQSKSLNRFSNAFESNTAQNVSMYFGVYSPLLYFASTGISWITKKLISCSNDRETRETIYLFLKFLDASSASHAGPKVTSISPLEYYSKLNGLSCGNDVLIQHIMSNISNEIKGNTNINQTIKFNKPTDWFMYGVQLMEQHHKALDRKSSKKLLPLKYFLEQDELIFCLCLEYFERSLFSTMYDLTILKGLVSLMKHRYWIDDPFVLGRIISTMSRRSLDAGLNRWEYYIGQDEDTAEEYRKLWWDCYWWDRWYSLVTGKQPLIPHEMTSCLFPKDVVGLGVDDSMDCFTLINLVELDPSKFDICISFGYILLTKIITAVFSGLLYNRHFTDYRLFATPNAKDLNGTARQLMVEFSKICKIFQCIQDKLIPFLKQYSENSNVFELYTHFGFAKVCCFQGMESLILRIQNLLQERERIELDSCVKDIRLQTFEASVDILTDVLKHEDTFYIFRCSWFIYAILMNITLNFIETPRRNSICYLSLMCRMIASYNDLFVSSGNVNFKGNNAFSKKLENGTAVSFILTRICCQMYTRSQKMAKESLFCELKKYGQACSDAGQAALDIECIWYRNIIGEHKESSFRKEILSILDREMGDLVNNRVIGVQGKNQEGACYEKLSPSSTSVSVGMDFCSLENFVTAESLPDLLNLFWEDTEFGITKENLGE
Assay: PBM E-score (8-mer binding enrichment) (E-score (-0.5 to 0.5)); higher = stronger / more preferred TF binding
Details: protein concentration: 100 nM; construct: GST-full length
Procedure, shortened: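 Full-length yeast transcription factors or their DNA-binding domains, GST-tagged and expressed with PURExpress, were applied at about 100-200 nM to universal all-10-mer Agilent arrays. These arrays had been made double-stranded by primer extension on fresh or once-stripped slides. Detection used fluorescent anti-GST, normalisation used masliner, and E-scores for ungapped eight-base words pooled with reverse complements came from the Universal PBM Analysis Suite.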

Sequence | PBM E-score
ATTACGGA | 0.252
AGGATCTA | -0.166
GGCCGCAC | 0.0332
TCGTAACA | 0.0581
GATGTAAA | 0.0689
AATCCCGT | 0.189
TATGATCA | 0.185
AGAGGTAA | -0.0922
GATCCGAA | 0.375
AGGGAAAC | -0.0715
ATGGAACA | -0.0156
CCCTTAGC | -0.187
CACTAAAA | 0.0457
CGTTAAAC | 0.00583
GGCCGAAA | 0.398
CTCCTTGC | -0.252
AACGAAGA | 0.121
CCTATGGC | -0.19
AAACGGTC | 0.0418
AGAATGGG | -0.133
GCCGCGCA | 0.0353
ACTCAGGA | -0.0812
AAGATCGG | 0.182
GCGGTAAC | 0.199
AAAACGTG | -0.123

No new results follow: entries from further up.
Sequence | PBM E-score
ACTCAGGA | -0.0812
AAGATCGG | 0.182

Remaining list, next part.

Sequence | PBM E-score
CTCACTGA | -0.106
GGGCAGAC | -0.114
CACCGGCC | 0.177
GGCAGTGA | -0.151
AAAAGTTA | 0.0959
ACTTTCGA | 0.0448
GCGTACGC | 0.00072
AATCGGCA | 0.289
CAAAAGAG | -0.0784
CCTACAGG | -0.253
TCTTTCCA | -0.0543
CCAGCCCG | -0.115
AAAGGTAA | 0.0263
ATAACAAG | 0.209
CGATGGAC | 0.113
AATTCAAC | 0.226
CTCCGGAA | 0.402
GACTACGC | -0.141
ACTATCCG | 0.269
ATATTTGG | 0.129
TAAACCAA | 0.152
ATTTACTC | 0.0684
AGCGTAAT | 0.0454
CGGCTGCC | 0.266
AGGATGTG | -0.0471

Sequence | PBM E-score
ACGGGCCG | 0.135
GATTTAGC | 0.0343
TCCAGTCA | -0.168
CCAACGGG | 0.0016
CGGTATCA | 0.177
GACGTCCC | -0.192
AGAACATG | 0.0772
AGGTCGGA | 0.0471
TGCTTAAA | 0.148
GCCCTTCA | -0.0881
CATGTATC | -0.0608
ATTATGAG | 0.00279
ATCCACAG | -0.118
AAAGTTGT | 0.247
AACGAGGC | -0.216
AGTCTTCA | -0.0522
AGTAGGGG | -0.196
GGCTGTGA | -0.0945
GAGCAACC | -0.0388
ATTGAATA | 0.24
ATTAGACG | -0.0239
CGAACGGC | 0.255
GCATGACA | -0.014
CTTCGGCC | 0.272
ATAGACAT | -0.0412

Sequence | PBM E-score
GGAGACCC | -0.284
GATTGCCA | -0.0755
AACCAAAT | 0.113
CTGCGTTA | -0.121
ACTCGTCG | -0.179
TATTTTCA | 0.209
TCTGGGAA | -0.0416
AGCTACCT | -0.0785
ATTGCGAG | -0.0585
AATCGACA | 0.252
CACACCAA | 0.0835
GCCACCAA | -0.0477
ATGTCATA | -0.0308
GTTCTAGA | 0.159
CTGCTCCA | -0.0246
TCGTCGAA | -0.0345
AGCTTTTG | 0.0231
CACTAGGG | -0.28
GGACACAC | -0.079
AGTACAAC | 0.102
ACTCAGGG | -0.195
CGAGCGCG | 0.0652
CCTAGTTC | -0.0645
CAATGCGG | 0.103
AAGTATAG | -0.242

Sequence | PBM E-score
AGAGCGTG | -0.0685
CCATGACC | -0.346
AGCCGCGC | 0.103
ACACAGGT | -0.289
ATAAGTAG | -0.0314
AGTGGGAC | -0.197
AGGTGGCC | -0.225
CACAAGGG | -0.272
ATGCGAAA | 0.136
CTTATCTA | 0.0972
GGCCCGCA | 0.0681
CCTTCCAG | -0.246
AGATGCCA | -0.178
AATGAAGA | 0.17
GAGTCTTA | -0.0926
GGTCTCCA | -0.118
AATTACGA | 0.0132
CCTTGACG | -0.133
CGACGCAG | -0.0485
TCCCGTAA | 0.192
AGAGAAAG | -0.0556
AACTGCAC | 0.119
AACAGCTG | 0.0223
GCTGAAGA | 0.0275
CAGCTACC | -0.113

Two entries from above, as labelled records:
AGGTGGCC
  PBM E-score: -0.225
CACAAGGG
  PBM E-score: -0.272

The results go on:

Sequence | PBM E-score
ATTGCTCA | 0.147
CAATCCGG | 0.316
ATTTGCTC | 0.132
AGATTGTG | -0.0812
CACCTAAC | 0.0534
CTGGTTTA | -0.126
TCTCGACA | 0.00853
AGTACACA | 0.0896
GCTTTCGA | -0.0696
CAACTGTA | -0.0664
CCACTTCG | -0.0424
ATTGTTTC | 0.324
ATGTCAGG | -0.0372
CCCGAGGA | 0.0175
AGCTGCCA | -0.0231
CAAACTAC | -0.187
GCTCCCAC | -0.104
CGTTCCGC | 0.262
CCCACTTA | -0.0602
CGCAACAG | 0.00982
CCAGATCG | -0.184
ATTTTCAA | 0.204
ACATAGAA | -0.0408
AAGACAAA | 0.0557
CAGCGGAC | 0.0951

Single values from the list:
Value of CCACTTCG under PBM E-score: -0.0424
Value of CTGGTTTA under PBM E-score: -0.126
Value of CAGCGGAC under PBM E-score: 0.0951

Later entries

Sequence | PBM E-score
CACTAAAG | -0.00889
CTTTGATC | -0.0541
TAAAGGTA | 0.0092
ATACCTCA | -0.149
ATTACAAC | 0.0687
CTGGATTC | 0.00297
ACTTCCTC | -0.122
CAGCCCTG | -0.32
CAATCCCA | -0.222
ATACATGG | -0.128
CGCTTGAA | 0.157
ATTAATGA | 0.233
ACGTGAGG | -0.163
ATCAGAGG | -0.0892
AAACAATC | 0.195
AATTTACG | 0.15
ACCAGTCG | 0.0286
AAGTCGGC | -0.00472
CAGAGAAA | 0.077
ATCGTGTC | 0.0556
AGGCGAAT | -0.0604
GGTACGAA | 0.184
